In publication PMC12005498:

Biological target: Semliki Forest virus (SFV) nsP3 fused with the biotin ligase miniTurbo (nsP3-mTB) (Semliki Forest virus)
Test: proximity labelling

B1: NUFIP2, human (protein, UniProt Q7Z417 1-695)
chain: MEEKPGQPQPQHHHSHHHPHHHPQQQQQQPHHHHHYYFYNHSHNHHHHHHHQQPHQYLQHGAEGSPKAQPKPLKHEQKHTLQQHQETPKKKTGYGELNGNAGEREISLKNLSSDEATNPISRVLNGNQQVVDTSLKQTVKANTFGKAGIKTKNFIQKNSMDKKNGKSYENKSGENQSVDKSDTIPIPNGVVTNNSGYITNGYMGKGADNDGSGSESGYTTPKKRKARRNSAKGCENLNIVQDKIMQQETSVPTLKQGLETFKPDYSEQKGNRVDGSKPIWKYETGPGGTSRGKPAVGDMLRKSSDSKPGVSSKKFDDRPKGKHASAVASKEDSWTLFKPPPVFPVDNSSAKIVPKISYASKVKENLNKTIQNSSVSPTSSSSSSSSTGETQTQSSSRLSQVPMSALKSVTSANFSNGPVLAGTDGNVYPPGGQPLLTTAANTLTPISSGTDSVLQDMSLTSAAVEQIKTSLFIYPSNMQTMLLSTAQVDLPSQTDQQNLGDIFQNQWGLSFINEPSAGPETVTGKSSEHKVMEVTFQGEYPATLVSQGAEIIPSGTEHPVFPKAYELEKRTSPQVLGSILKSGTTSESGALSLEPSHIGDLQKADTSSQGALVFLSKDYEIESQNPLASPTNTLLGSAKEQRYQRGLERNDSWGSFDLRAAIVYHTKEMESIWNLQKQDPKRIITYNEAMDSPDQ
binding: binds

B2: RBM22, human (protein, UniProt Q9NW64 1-420)
chain: MATSLGSNTYNRQNWEDADFPILCQTCLGENPYIRMTKEKYGKECKICARPFTVFRWCPGVRMRFKKTEVCQTCSKLKNVCQTCLLDLEYGLPIQVRDAGLSFKDDMPKSDVNKEYYTQNMEREISNSDGTRPVGMLGKATSTSDMLLKLARTTPYYKRNRPHICSFWVKGECKRGEECPYRHEKPTDPDDPLADQNIKDRYYGINDPVADKLLKRASTMPRLDPPEDKTITTLYVGGLGDTITETDLRNHFYQFGEIRTITVVQRQQCAFIQFATRQAAEVAAEKSFNKLIVNGRRLNVKWGRSQAARGKEKEKDGTTDSGIKLEPVPGLPGALPPPPAAEEEASANYFNLPPSGPPAVVNIALPPPPGIAPPPPPGFGPHMFHPMGPPPPFMRAPGPIHYPSQDPQRMGAHAGKHSSP
binding: binds

Results are given in words; binding and its absence hold for the method and conditions named. In cells and extracts the contact can be indirect. Here binding means that the protein was enriched with, or labelled near, the bait; the list need not be complete.
